The values that follow come from patent CN109678957A.

Amino acid sequences for entries named in this document (tags omitted). Residues count along the entry.
UniProt Q969D9, residues 29-159: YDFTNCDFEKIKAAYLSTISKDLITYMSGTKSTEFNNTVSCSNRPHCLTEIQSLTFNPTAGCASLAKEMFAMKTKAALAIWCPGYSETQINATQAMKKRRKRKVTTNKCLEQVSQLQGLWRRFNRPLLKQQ

Results are given in words; binding and its absence hold for the method and conditions named. Some entries that bind do so weakly or less than the wild type.

For the experiment, the target named is Hela细胞上清中TSLP蛋白 (TSLP protein in the culture supernatant of the human cervical cancer cell line Hela) (human) (UniProt Q969D9). Briefly: sandwich ELISA, antibody coated as capture antibody at 0.1 mg/ml, Hela cell supernatant.

B1: 抗人TSLP单克隆抗体 (anti-human TSLP monoclonal antibody, from hybridoma ascites, Example 3) (antibody, IgG1, V domains shown)
VH: QIQLVQSGPELKKPGETVKISCKASGYTFTNYGMNWVKQAPGKGLKWMGWINTYTGEPTYADDFKGRFAFSLETSASTAYLQINNLKNEDMATYFCARGLTGTRGRFAYWGQGTLVTVSA
VL: DIVMTQSHKFMSTSVGDRVSITCKASQDVSTAVAWYQQKPGQSPKLLIYWASTRHTGVPDRFTGSGSGTDYTLTISSVQAEDLALYYCQQHYSTPPTFGGGTKLEIK
Regarding B1, the binding result was “binds”.
